Test results reported in the supplement of paper PMC6078165.

Test system: Hs578T
Assay: relative JC-1 red fluorescence (viability) vs pre-drug, coculture with fibroblast (fraction); higher = more viable cancer cells
Description: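 JC-1 labelled TNBC cells cocultured 1:1 (1,500 cells each) with CellTrace Violet stained primary or stromal fibroblasts in 384-well plates in FluoroBrite medium, treated with one of 42 anticancer drugs at 0.1, 1, 10 or 100 uM. JC-1 red fluorescence (mitochondrial integrity in cancer cells only) was read by plate reader every 8 h for 72 h. Values are normalised to each well's pre-drug value. The stock of one drug was tenfold lower, so its dose labels may be too high.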

O=C1c2c(O)ccc(O)c2C(=O)c2c(NCCNCCO)ccc(NCCNCCO)c21 [Mitoxantrone]
relative JC-1 red fluorescence (0.1 µM, 56 h, coculture fibroblast: HUF): 0.51 ± 0.019 | relative JC-1 red fluorescence (0.1 µM, 56 h, coculture fibroblast: Hs27A): 0.692 ± 0.023 | relative JC-1 red fluorescence (0.1 µM, 56 h, coculture fibroblast: Hs343T): 0.626 ± 0.014 | relative JC-1 red fluorescence (0.1 µM, 56 h, coculture fibroblast: WS1): 0.507 ± 0.019 | relative JC-1 red fluorescence (0.1 µM, 64 h): 0.544 ± 0.042 | relative JC-1 red fluorescence (0.1 µM, 64 h, coculture fibroblast: C12385): 0.502 ± 0.048 | relative JC-1 red fluorescence (0.1 µM, 64 h, coculture fibroblast: H6013): 0.619 ± 0.082 | relative JC-1 red fluorescence (0.1 µM, 64 h, coculture fibroblast: H6019): 0.453 ± 0.066 | relative JC-1 red fluorescence (0.1 µM, 64 h, coculture fibroblast: H6076): 0.7919 ± 0.0011 | relative JC-1 red fluorescence (0.1 µM, 64 h, coculture fibroblast: H6231): 0.557 ± 0.018 | relative JC-1 red fluorescence (0.1 µM, 64 h, coculture fibroblast: HADF): 0.511 ± 0.025 | relative JC-1 red fluorescence (0.1 µM, 64 h, coculture fibroblast: HCFa): 0.493 ± 0.037 | relative JC-1 red fluorescence (0.1 µM, 64 h, coculture fibroblast: HCPF): 0.554 ± 0.021 | relative JC-1 red fluorescence (0.1 µM, 64 h, coculture fibroblast: HHSteC): 0.583 ± 0.0094 | relative JC-1 red fluorescence (0.1 µM, 64 h, coculture fibroblast: HMF): 0.627 ± 0.076 | relative JC-1 red fluorescence (0.1 µM, 64 h, coculture fibroblast: HPFa): 0.594 ± 0.042 | relative JC-1 red fluorescence (0.1 µM, 64 h, coculture fibroblast: HUF): 0.512 ± 0.019 | relative JC-1 red fluorescence (0.1 µM, 64 h, coculture fibroblast: Hs27A): 0.685 ± 0.039 | relative JC-1 red fluorescence (0.1 µM, 64 h, coculture fibroblast: Hs343T): 0.621 ± 0.011 | relative JC-1 red fluorescence (0.1 µM, 64 h, coculture fibroblast: WS1): 0.52 ± 0.024 | relative JC-1 red fluorescence (0.1 µM, 72 h): 0.545 ± 0.042 | relative JC-1 red fluorescence (0.1 µM, 72 h, coculture fibroblast: C12385): 0.501 ± 0.049 | relative JC-1 red fluorescence (0.1 µM, 72 h, coculture fibroblast: H6013): 0.594 ± 0.091 | relative JC-1 red fluorescence (0.1 µM, 72 h, coculture fibroblast: H6019): 0.438 ± 0.069 | relative JC-1 red fluorescence (0.1 µM, 72 h, coculture fibroblast: H6076): 0.8017 ± 0.0057 | relative JC-1 red fluorescence (0.1 µM, 72 h, coculture fibroblast: H6231): 0.546 ± 0.018 | relative JC-1 red fluorescence (0.1 µM, 72 h, coculture fibroblast: HADF): 0.474 ± 0.035 | relative JC-1 red fluorescence (0.1 µM, 72 h, coculture fibroblast: HCFa): 0.459 ± 0.037 | relative JC-1 red fluorescence (0.1 µM, 72 h, coculture fibroblast: HCPF): 0.547 ± 0.031 | relative JC-1 red fluorescence (0.1 µM, 72 h, coculture fibroblast: HHSteC): 0.548 ± 0.017 | relative JC-1 red fluorescence (0.1 µM, 72 h, coculture fibroblast: HMF): 0.618 ± 0.072 | relative JC-1 red fluorescence (0.1 µM, 72 h, coculture fibroblast: HPFa): 0.559 ± 0.052 | relative JC-1 red fluorescence (0.1 µM, 72 h, coculture fibroblast: HUF): 0.509 ± 0.023 | relative JC-1 red fluorescence (0.1 µM, 72 h, coculture fibroblast: Hs27A): 0.637 ± 0.048 | relative JC-1 red fluorescence (0.1 µM, 72 h, coculture fibroblast: Hs343T): 0.622 ± 0.017 | relative JC-1 red fluorescence (0.1 µM, 72 h, coculture fibroblast: WS1): 0.525 ± 0.024 | relative JC-1 red fluorescence (1 µM, 8 h): 0.653 ± 0.0097 | relative JC-1 red fluorescence (1 µM, 8 h, coculture fibroblast: C12385): 0.4879 ± 0.0036 | relative JC-1 red fluorescence (1 µM, 8 h, coculture fibroblast: H6013): 0.593 ± 0.006 | relative JC-1 red fluorescence (1 µM, 8 h, coculture fibroblast: H6019): 0.5182 ± 0.001 | relative JC-1 red fluorescence (1 µM, 8 h, coculture fibroblast: H6076): 0.645 ± 0.015 | relative JC-1 red fluorescence (1 µM, 8 h, coculture fibroblast: H6231): 0.628 ± 0.019 | relative JC-1 red fluorescence (1 µM, 8 h, coculture fibroblast: HADF): 0.53434 ± 0.0004 | relative JC-1 red fluorescence (1 µM, 8 h, coculture fibroblast: HCFa): 0.57639 ± 0.00051 | relative JC-1 red fluorescence (1 µM, 8 h, coculture fibroblast: HCPF): 0.6159 ± 0.0045 | relative JC-1 red fluorescence (1 µM, 8 h, coculture fibroblast: HHSteC): 0.598 ± 0.019 | relative JC-1 red fluorescence (1 µM, 8 h, coculture fibroblast: HMF): 0.601 ± 0.0088 | relative JC-1 red fluorescence (1 µM, 8 h, coculture fibroblast: HPFa): 0.645 ± 0.023 | relative JC-1 red fluorescence (1 µM, 8 h, coculture fibroblast: HUF): 0.553 ± 0.016 | relative JC-1 red fluorescence (1 µM, 8 h, coculture fibroblast: Hs27A): 0.661 ± 0.0098 | relative JC-1 red fluorescence (1 µM, 8 h, coculture fibroblast: Hs343T): 0.655 ± 0.014 | relative JC-1 red fluorescence (1 µM, 8 h, coculture fibroblast: WS1): 0.436 ± 0.0088 | relative JC-1 red fluorescence (1 µM, 16 h): 0.616 ± 0.0063 | relative JC-1 red fluorescence (1 µM, 16 h, coculture fibroblast: C12385): 0.402 ± 0.024 | relative JC-1 red fluorescence (1 µM, 16 h, coculture fibroblast: H6013): 0.592 ± 0.013 | relative JC-1 red fluorescence (1 µM, 16 h, coculture fibroblast: H6019): 0.486 ± 0.022 | relative JC-1 red fluorescence (1 µM, 16 h, coculture fibroblast: H6076): 0.5753 ± 0.0025 | relative JC-1 red fluorescence (1 µM, 16 h, coculture fibroblast: H6231): 0.497 ± 0.02 | relative JC-1 red fluorescence (1 µM, 16 h, coculture fibroblast: HADF): 0.54 ± 0.0087 | relative JC-1 red fluorescence (1 µM, 16 h, coculture fibroblast: HCFa): 0.5777 ± 0.0051 | relative JC-1 red fluorescence (1 µM, 16 h, coculture fibroblast: HCPF): 0.561 ± 0.013 | relative JC-1 red fluorescence (1 µM, 16 h, coculture fibroblast: HHSteC): 0.586 ± 0.029 | relative JC-1 red fluorescence (1 µM, 16 h, coculture fibroblast: HMF): 0.534 ± 0.042 | relative JC-1 red fluorescence (1 µM, 16 h, coculture fibroblast: HPFa): 0.577 ± 0.032 | relative JC-1 red fluorescence (1 µM, 16 h, coculture fibroblast: HUF): 0.488 ± 0.011 | relative JC-1 red fluorescence (1 µM, 16 h, coculture fibroblast: Hs27A): 0.6096 ± 0.0029 | relative JC-1 red fluorescence (1 µM, 16 h, coculture fibroblast: Hs343T): 0.55 ± 0.048 | relative JC-1 red fluorescence (1 µM, 16 h, coculture fibroblast: WS1): 0.388 ± 0.012 | relative JC-1 red fluorescence (1 µM, 24 h): 0.668 ± 0.01 | relative JC-1 red fluorescence (1 µM, 24 h, coculture fibroblast: C12385): 0.428 ± 0.061 | relative JC-1 red fluorescence (1 µM, 24 h, coculture fibroblast: H6013): 0.594 ± 0.024 | relative JC-1 red fluorescence (1 µM, 24 h, coculture fibroblast: H6019): 0.521 ± 0.08 | relative JC-1 red fluorescence (1 µM, 24 h, coculture fibroblast: H6076): 0.562 ± 0.025 | relative JC-1 red fluorescence (1 µM, 24 h, coculture fibroblast: H6231): 0.554 ± 0.01 | relative JC-1 red fluorescence (1 µM, 24 h, coculture fibroblast: HADF): 0.5485 ± 0.0014 | relative JC-1 red fluorescence (1 µM, 24 h, coculture fibroblast: HCFa): 0.5722 ± 0.0016 | relative JC-1 red fluorescence (1 µM, 24 h, coculture fibroblast: HCPF): 0.591 ± 0.016 | relative JC-1 red fluorescence (1 µM, 24 h, coculture fibroblast: HHSteC): 0.597 ± 0.04 | relative JC-1 red fluorescence (1 µM, 24 h, coculture fibroblast: HMF): 0.538 ± 0.057 | relative JC-1 red fluorescence (1 µM, 24 h, coculture fibroblast: HPFa): 0.584 ± 0.036 | relative JC-1 red fluorescence (1 µM, 24 h, coculture fibroblast: HUF): 0.497 ± 0.0053 | relative JC-1 red fluorescence (1 µM, 24 h, coculture fibroblast: Hs27A): 0.658 ± 0.027 | relative JC-1 red fluorescence (1 µM, 24 h, coculture fibroblast: Hs343T): 0.536 ± 0.023 | relative JC-1 red fluorescence (1 µM, 24 h, coculture fibroblast: WS1): 0.41 ± 0.014 | relative JC-1 red fluorescence (1 µM, 32 h): 0.692 ± 0.0076 | relative JC-1 red fluorescence (1 µM, 32 h, coculture fibroblast: C12385): 0.383 ± 0.057 | relative JC-1 red fluorescence (1 µM, 32 h, coculture fibroblast: H6013): 0.593 ± 0.033 | relative JC-1 red fluorescence (1 µM, 32 h, coculture fibroblast: H6019): 0.464 ± 0.077 | relative JC-1 red fluorescence (1 µM, 32 h, coculture fibroblast: H6076): 0.557 ± 0.027 | relative JC-1 red fluorescence (1 µM, 32 h, coculture fibroblast: H6231): 0.573 ± 0.0096 | relative JC-1 red fluorescence (1 µM, 32 h, coculture fibroblast: HADF): 0.559 ± 0.0012 | relative JC-1 red fluorescence (1 µM, 32 h, coculture fibroblast: HCFa): 0.5784 ± 0.0026 | relative JC-1 red fluorescence (1 µM, 32 h, coculture fibroblast: HCPF): 0.607 ± 0.017 | relative JC-1 red fluorescence (1 µM, 32 h, coculture fibroblast: HHSteC): 0.604 ± 0.039 | relative JC-1 red fluorescence (1 µM, 32 h, coculture fibroblast: HMF): 0.542 ± 0.066 | relative JC-1 red fluorescence (1 µM, 32 h, coculture fibroblast: HPFa): 0.606 ± 0.038 | relative JC-1 red fluorescence (1 µM, 32 h, coculture fibroblast: HUF): 0.424 ± 0.0043 | relative JC-1 red fluorescence (1 µM, 32 h, coculture fibroblast: Hs27A): 0.698 ± 0.019 | relative JC-1 red fluorescence (1 µM, 32 h, coculture fibroblast: Hs343T): 0.533 ± 0.014 | relative JC-1 red fluorescence (1 µM, 32 h, coculture fibroblast: WS1): 0.356 ± 0.015 | relative JC-1 red fluorescence (1 µM, 40 h): 0.688 ± 0.0093 | relative JC-1 red fluorescence (1 µM, 40 h, coculture fibroblast: C12385): 0.364 ± 0.071 | relative JC-1 red fluorescence (1 µM, 40 h, coculture fibroblast: H6013): 0.6 ± 0.037 | relative JC-1 red fluorescence (1 µM, 40 h, coculture fibroblast: H6019): 0.464 ± 0.088 | relative JC-1 red fluorescence (1 µM, 40 h, coculture fibroblast: H6076): 0.54 ± 0.034 | relative JC-1 red fluorescence (1 µM, 40 h, coculture fibroblast: H6231): 0.5422 ± 0.0038 | relative JC-1 red fluorescence (1 µM, 40 h, coculture fibroblast: HADF): 0.587 ± 0.0085 | relative JC-1 red fluorescence (1 µM, 40 h, coculture fibroblast: HCFa): 0.573 ± 0.0061

± gives the standard deviation of the averaged measurements. Values are relative to the signal before dosing, not to a vehicle control; the signal also falls without drug.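 Fibroblast labels name human fibroblasts: mostly primary ones from tissues such as uterus (C12385, HUF), lung (H6013), bone (Hs27A), adrenal (HADF) and skin (WS1), plus mammary HMF and breast cancer-associated Hs343T. The cancer cells are basal-like or mesenchymal-like triple-negative breast cancer lines. The paper calls a changed response a hit when it shifts by more than 3x the replicate standard deviation. The tissue of the other fibroblasts is not given here.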
